“Also recorded” adds a separate entry of the source. At least one structure is not confirmed: it was looked up by name or label, or the drawing left a doubt.
Key:
[1] = test system: hepatic cells; conditions: Fujisaki et al. 1998; cited from earlier work
[2] = test system: Human microvascular endothelial cells (ECs); assay: Senescence-associated β-galactosidase (SA-β-gal) staining with SYTO cell count; format: cell-based
Method: Cell culture. Human microvascular endothelial cells (ECs) purchased from Lonza (cat # CC-2543, Basel, Switzerland) were cultured continuously for three passages from passage (P) 4 to P6 in the presence of clinically relevant doses of esomeprazole or vehicle (DMSO) (Shin J M, Kim N. Pharmacokinetics and pharmacodynamics of the proton pump inhibitors. Journal of neurogastroenterology and motility. 2013; 19:25-35). All in vitro experiments were performed at P6 upon confluency. ECs were cultured and maintained in EBM-2 Basal Medium (cat # CC-3156, Lonza, Basel, Switzerland) supplemented with EGM-2 MV SingleQuots™ Kit—growth factors, cytokines, and antibiotics (cat # CC-4147, Lonza, Basel, Switzerland).
Senescence-associated β-galactosidase (SA-β-gal) staining. Senescence of ECs was measured using the Cellular Senescence Assay kit from Cell Biolabs, Inc. (Cat: CBA-230, San Diego, Calif.). The protocol was performed according to the manufacturer's guide. Briefly, Ecs treated continuously for 3 passages with esomeprazole or vehicle were plated in a 6 well plate. Upon confluency, cells were initially fixed and later incubated with SA-β-gal working solution for 16 hours in a non-humidified CO2 free incubator at 37° C. […] The SA-β-gal positive cells were counted manually and total cell number per field was quantified using NIH ImageJ software.

Structure (SMILES)	impairment of lysosomal activity [1]	endothelial senescence / aging (overall finding) ([2]; chronic exposure of human ECs)	SA-β-gal-positive cells ([2]; chronic treatment, at P6, vs vehicle)
COCCCOc1ccnc(C[S+]([O-])c2nc3ccccc3[nH]2)c1C (stereo not drawn) [rabeprazole]	no evidence		
CNC(=C[N+](=O)[O-])NCCSCc1ccc(CN(C)C)o1 [ranitidine]		does not accelerate; also recorded: does not have an adverse effect	not observed was any significant difference

— patent US20200338056A1, “INDUCTION OF SENESCENCE USING PROTON PUMP INHIBITORS” (THE METHODIST HOSPITAL SYSTEM, priority 2016, published 2020)
